The target of one assay is lysozyme (UniProt P00698). The assay is described as follows: far-Western, overlay or dot blot; gel overlay: equal molar proteins on 10% SDS-PAGE, blotted onto PVDF, incubated with 3 µg/ml S100P at 4°C overnight, bound S100P probed with anti-S100P; both purified.
In assay [1] the target is T1, Non muscle myosin IIA peptide.
T1 sequence (peptide): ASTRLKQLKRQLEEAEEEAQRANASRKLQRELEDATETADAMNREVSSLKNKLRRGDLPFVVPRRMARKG
The description is as above.

Results are given in words; binding and its absence hold for the method and conditions named. Some results given as binding are weak or reduced against the parent protein; the word gives no strength.

B1: S100P (protein, UniProt P25815 1-95)
chain: MTELETAMGMIIDVFSRYSGSEGSTQTLTKGELKVLMEKELPGFLQSGKDKDAVDKLLKDLDANGDAQVDFSEFIVFVAAITSACHKYFEKAGLK
As for B1, the binding result with lysozyme is on record as “no binding (tested: 3 µg/ml S100P)”; in assay [1], “binds”.
